These are yes or no findings as the source states them, for the method shown. In cells and extracts the contact can be indirect. Some binding calls cover weakened binding; strength is not graded here.
T1: TGF-β receptor (TGFBR1) (human (endogenous in HTR8)) (UniProt P36897)
T1 sequence: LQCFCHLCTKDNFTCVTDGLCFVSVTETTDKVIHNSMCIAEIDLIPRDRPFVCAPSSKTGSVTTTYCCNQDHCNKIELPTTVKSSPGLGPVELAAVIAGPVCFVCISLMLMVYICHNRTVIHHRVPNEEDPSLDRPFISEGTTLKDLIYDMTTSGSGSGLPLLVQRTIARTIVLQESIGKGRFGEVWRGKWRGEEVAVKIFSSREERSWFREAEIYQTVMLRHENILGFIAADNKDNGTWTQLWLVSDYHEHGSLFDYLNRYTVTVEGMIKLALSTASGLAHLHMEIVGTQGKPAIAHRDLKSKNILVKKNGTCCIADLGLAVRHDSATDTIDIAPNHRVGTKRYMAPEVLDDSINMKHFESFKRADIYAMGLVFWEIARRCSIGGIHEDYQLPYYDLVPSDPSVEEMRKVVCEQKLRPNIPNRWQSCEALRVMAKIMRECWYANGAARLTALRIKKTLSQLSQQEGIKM

By UniProt entry, the sequences of proteins in these tests, tags left out.
UniProt P35222: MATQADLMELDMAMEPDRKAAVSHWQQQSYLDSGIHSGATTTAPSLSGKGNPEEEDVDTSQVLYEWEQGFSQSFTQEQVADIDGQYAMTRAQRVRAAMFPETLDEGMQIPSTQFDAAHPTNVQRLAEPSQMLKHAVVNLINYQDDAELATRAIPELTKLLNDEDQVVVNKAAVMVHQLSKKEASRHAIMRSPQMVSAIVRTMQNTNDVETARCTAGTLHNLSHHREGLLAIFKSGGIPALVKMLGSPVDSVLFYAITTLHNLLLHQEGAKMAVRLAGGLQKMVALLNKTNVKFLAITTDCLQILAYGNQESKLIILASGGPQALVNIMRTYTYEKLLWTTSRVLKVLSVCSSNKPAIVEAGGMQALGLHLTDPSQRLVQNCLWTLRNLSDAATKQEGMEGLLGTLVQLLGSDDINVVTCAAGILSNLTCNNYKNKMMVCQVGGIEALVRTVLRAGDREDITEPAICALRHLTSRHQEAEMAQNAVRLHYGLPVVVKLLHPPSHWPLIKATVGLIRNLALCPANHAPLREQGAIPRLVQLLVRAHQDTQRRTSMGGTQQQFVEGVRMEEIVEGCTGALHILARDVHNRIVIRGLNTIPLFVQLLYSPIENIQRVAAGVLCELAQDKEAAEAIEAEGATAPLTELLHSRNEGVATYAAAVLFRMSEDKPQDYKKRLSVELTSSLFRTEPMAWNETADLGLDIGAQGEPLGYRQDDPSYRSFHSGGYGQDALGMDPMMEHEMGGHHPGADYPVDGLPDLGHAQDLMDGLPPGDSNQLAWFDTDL

B1: Ubiquitin-specific protease 2a (USP2a), in HTR8 cells (enzyme, UniProt O75604-1 1-605)
chain: MSQLSSTLKRYTESARYTDAHYAKSGYGAYTPSSYGANLAASLLEKEKLGFKPVPTSSFLTRPRTYGPSSLLDYDRGRPLLRPDITGGGKRAESQTRGTERPLGSGLSGGSGFPYGVTNNCLSYLPINAYDQGVTLTQKLDSQSDLARDFSSLRTSDSYRIDPRNLGRSPMLARTRKELCTLQGLYQTASCPEYLVDYLENYGRKGSASQVPSQAPPSRVPEIISPTYRPIGRYTLWETGKGQAPGPSRSSSPGRDGMNSKSAQGLAGLRNLGNTCFMNSILQCLSNTRELRDYCLQRLYMRDLHHGSNAHTALVEEFAKLIQTIWTSSPNDVVSPSEFKTQIQRYAPRFVGYNQQDAQEFLRFLLDGLHNEVNRVTLRPKSNPENLDHLPDDEKGRQMWRKYLEREDSRIGDLFVGQLKSSLTCTDCGYCSTVFDPFWDLSLPIAKRGYPEVTLMDCMRLFTKEDVLDGDEKPTCCRCRGRKRCIKKFSIQRFPKILVLHLKRFSESRIRTSKLTTFVNFPLRDLDLREFASENTNHAVYNLYAVSNHSGTTMGGHYTAYCRSPGTGEWHTFNDSSVTPMSSSQVRTSDAYLLFYELASPPSRM
B2: Ubiquitin-specific protease 2a (USP2a), overexpressed in HTR8 cells (p-USP2a/HTR8) (enzyme, UniProt O75604-1 1-605)
chain: B1 chain

Legend:
[1] = molecular target: β-catenin (human (endogenous in HTR8)) (UniProt P35222); test: co-IP; extracts of HTR8 or p-USP2a/HTR8 cells made by brief sonication in IP buffer (50 mM Tris-HCl pH 8.0, 150 mM NaCl, 2 mM EDTA, 0.5% NP-40, 5% glycerol); 1-2 ug antibody overnight, protein A+G agarose, three washes, Western blot; the precipitating antibody is not stated
[2] = molecular target: T1, TGF-β receptor (TGFBR1) (human (endogenous in HTR8)); test: as above

Binder | binding [1] | binding [2]
B1 | binds | –
B2 | – | binds
